Test results as given in article PMC11700865.
These are yes or no findings as the source states them, for the method shown. Binding seen in cells or lysates may run through a third protein. Some binding calls cover weakened binding; strength is not graded here.

Amino acid sequences for entries named in this document (tags omitted).
UniProt P30051: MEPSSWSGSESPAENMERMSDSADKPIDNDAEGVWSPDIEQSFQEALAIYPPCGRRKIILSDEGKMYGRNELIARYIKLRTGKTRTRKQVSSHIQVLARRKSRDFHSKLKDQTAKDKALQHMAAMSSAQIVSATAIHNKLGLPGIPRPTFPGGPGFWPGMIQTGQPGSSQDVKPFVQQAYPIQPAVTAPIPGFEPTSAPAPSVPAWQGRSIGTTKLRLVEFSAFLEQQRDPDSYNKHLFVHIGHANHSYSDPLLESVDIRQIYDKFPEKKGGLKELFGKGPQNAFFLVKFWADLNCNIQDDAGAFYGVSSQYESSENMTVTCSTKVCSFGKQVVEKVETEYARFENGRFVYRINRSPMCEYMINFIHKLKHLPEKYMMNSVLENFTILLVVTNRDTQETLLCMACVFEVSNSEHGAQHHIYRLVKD
UniProt P46938: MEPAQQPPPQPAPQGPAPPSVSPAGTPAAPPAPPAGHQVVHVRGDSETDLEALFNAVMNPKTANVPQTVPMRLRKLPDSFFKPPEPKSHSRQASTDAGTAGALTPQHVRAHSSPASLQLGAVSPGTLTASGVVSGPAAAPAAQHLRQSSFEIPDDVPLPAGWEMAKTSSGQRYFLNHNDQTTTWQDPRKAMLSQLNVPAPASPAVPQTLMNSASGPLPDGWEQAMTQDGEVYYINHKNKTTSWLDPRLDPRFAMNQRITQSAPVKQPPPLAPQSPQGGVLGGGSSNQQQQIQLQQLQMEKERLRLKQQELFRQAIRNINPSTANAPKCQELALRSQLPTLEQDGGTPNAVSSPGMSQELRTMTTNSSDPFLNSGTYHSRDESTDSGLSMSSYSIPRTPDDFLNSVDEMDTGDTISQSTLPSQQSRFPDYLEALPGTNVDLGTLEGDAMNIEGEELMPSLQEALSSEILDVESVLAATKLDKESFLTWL

B1: Otubain-2 (OTUB2), endogenous in mouse vascular smooth muscle cells (enzyme, UniProt Q9CQX0 1-234)
chain: MSETSFNLISEKCDILSILRDHPENRIYQRKIQELSKRFTSIRKTKGDGNCFYRALGYSYLESLLGKSREILKFKERVLQTPNDLLAAGFEEHKFRNFFNAFYSVVELVEKDSSVSSLLKVFNDQSSSDRIVQFLRLLTSAFIRNRADFFRHFIDEEMDIKDFCTHEVEPMAMECDHVQITALSQALNIALQVEYVDEMDTALNHHVFPEAAIPSVYLLYKTSHYNILYAAEKH

Assays:
[1] = target: TEAD1, endogenous in mouse vascular smooth muscle cells (mouse (endogenous in primary mouse VSMCs)) (UniProt P30051); experiment: co-IP; endogenous proteins in VSMC lysates (IP lysis buffer); primary antibody overnight at 4 °C, protein A/G beads 2 h at room temperature, anti-IgG as control, Western blot; anti-YAP antibody for OTUB2/YAP
[2] = target: Yes-associated protein (YAP), endogenous in mouse vascular smooth muscle cells (mouse (endogenous in primary mouse VSMCs)) (UniProt P46938); experiment: as above
[3] = target: Yes-associated protein (YAP), endogenous in mouse vascular smooth muscle cells (mouse (endogenous in primary mouse VSMCs)) (UniProt P46938); experiment: co-IP; endogenous proteins in separated nuclear and cytoplasmic protein fractions of VSMCs

Molecule	binding [1]	binding [2]	binding [3]
Yes-associated protein (YAP), endogenous in mouse vascular smooth muscle cells (from UniProt P46938 1-488)	binds		
B1		binds	binds
